Whole data set: some 33,000 sequences, median “E-score (-0.5 to 0.5)” near -0.015, cut for the highest 2% near 0.3. This is one part of the list.
biological target: T1, Abf1 (UniProt P14164); experiment: PBM E-score (8-mer binding enrichment) (E-score (-0.5 to 0.5)); higher = stronger / more preferred TF binding; details: protein concentration: 200 nM; construct: GST-full length
T1 sequence: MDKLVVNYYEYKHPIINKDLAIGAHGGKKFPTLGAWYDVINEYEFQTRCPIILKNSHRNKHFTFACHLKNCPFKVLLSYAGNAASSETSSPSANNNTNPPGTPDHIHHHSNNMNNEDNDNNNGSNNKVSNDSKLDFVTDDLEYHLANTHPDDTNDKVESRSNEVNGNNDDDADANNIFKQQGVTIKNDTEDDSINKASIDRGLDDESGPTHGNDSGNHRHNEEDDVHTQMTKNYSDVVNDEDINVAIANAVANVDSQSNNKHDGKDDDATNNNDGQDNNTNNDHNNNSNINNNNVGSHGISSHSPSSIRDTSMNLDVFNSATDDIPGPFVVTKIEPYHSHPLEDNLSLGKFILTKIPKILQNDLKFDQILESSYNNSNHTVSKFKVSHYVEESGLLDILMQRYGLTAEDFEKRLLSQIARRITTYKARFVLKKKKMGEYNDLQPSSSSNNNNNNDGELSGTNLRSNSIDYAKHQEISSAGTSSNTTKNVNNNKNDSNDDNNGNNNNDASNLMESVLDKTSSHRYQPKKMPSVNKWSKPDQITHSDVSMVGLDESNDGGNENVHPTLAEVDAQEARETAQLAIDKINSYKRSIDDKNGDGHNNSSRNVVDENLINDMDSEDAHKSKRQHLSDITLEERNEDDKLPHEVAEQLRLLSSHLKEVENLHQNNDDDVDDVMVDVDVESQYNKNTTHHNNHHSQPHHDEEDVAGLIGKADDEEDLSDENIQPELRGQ
Outline: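 Using PURExpress in vitro transcription/translation, GST-tagged yeast transcription factors were made in full-length or DNA-binding-domain form. These were applied at about 100-200 nM to double-stranded universal all-10-mer Agilent arrays, and bound protein was detected with fluorescent anti-GST. Scans were normalised with masliner before the Universal PBM Analysis Suite assigned E-scores to ungapped eight-base words pooled with their reverse complements.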

| Sequence | PBM E-score |
| --- | --- |
| AACGCGAG | -0.00027 |
| AGTTTGAT | 0.0104 |
| CAGACACC | 0.0176 |
| CAACCCCA | -0.195 |
| CAAAGTGA | 0.28 |
| ACGATACG | 0.334 |
| CGGTCTCC | -0.336 |
| CGAAGGGA | -0.118 |
| GGCAACGA | 0.187 |
| GAATCGGA | -0.1 |
| CCCGACCG | -0.167 |
| CTAGTCCA | -0.122 |
| CACCGTGC | 0.246 |
| CCCGGACC | -0.275 |
| CCGCGGAA | -0.0498 |
| CTCTGACA | 0.0737 |
| AATACCGT | 0.193 |
| TCAGTACA | 0.0618 |
| GCCGTGCC | 0.208 |
| CTACGAAA | 0.122 |
| CATAAAGA | 0.0994 |
| AGCACCAC | -0.214 |
| ATGTTCCC | -0.0789 |
| AACTGCAA | -0.0625 |
| CGGATGCA | -0.282 |

| Sequence | PBM E-score |
| --- | --- |
| GGTGAGAC | -0.00153 |
| GAATTTGC | 0.0129 |
| AGTCTTCC | -0.0669 |
| CCCCGTCA | -0.0762 |
| ACGTATAA | 0.304 |
| ACCCCTAG | -0.18 |
| ATTCCAGC | -0.192 |
| CGACAATC | 0.0211 |
| ACTAAAGT | 0.0505 |
| AGGAAAGC | -0.197 |
| ATAGGCGC | 0.0148 |
| GAACTCAC | -0.00017 |
| CTTGAAGC | 0.00419 |
| AAAACTGA | -0.159 |
| GATGGCAC | -0.174 |
| AGTCTGAC | 1e-05 |
| CACGATTA | 0.247 |
| ATCCTTCG | -0.102 |
| GGTGGGTA | -0.16 |
| CGCGACCA | 0.0773 |
| TCAGCGAA | -0.107 |
| CAGCTTCA | 0.0428 |
| AGATTATA | -0.00367 |
| ATTCTCCG | 0.0487 |
| AAACACGA | 0.0784 |

| Sequence | PBM E-score |
| --- | --- |
| ATTTTGTA | 0.226 |
| CACACGAG | 0.107 |
| CGTAGCGA | 0.126 |
| ACTCGAAT | -0.104 |
| GAGTCCAC | -0.108 |
| CTAACGCA | 0.0971 |
| CCGCAAGG | -0.214 |
| ATTGCGGA | -0.0442 |
| AAATGGAA | 0.0995 |
| ATTTAATA | 0.251 |
| AAGACGCT | -0.215 |
| TATGAACA | 0.028 |
| GCGAGGCA | -0.0982 |
| TTATCAAA | 0.242 |
| GCGCTACC | -0.0802 |
| AAGAAGCA | 0.0711 |
| CGAGAAAA | 0.0842 |
| CTAATCGC | 0.0239 |
| CAGGGCTC | -0.276 |
| CACAAAAG | -0.0552 |
| AGTAATAT | 0.212 |
| CTCAGACC | -0.207 |
| GTGAGGTA | -0.0243 |
| CAGCCACC | -0.0895 |
| CTACAGTA | -0.0874 |

| Sequence | PBM E-score |
| --- | --- |
| CCTCGACA | 0.116 |
| CTGTCAGA | -0.0315 |
| GACAATAC | 0.202 |
| CTGCAATC | -0.117 |
| TAAGATGA | 0.182 |
| ATCCGTAG | 0.153 |
| ATGGAGAA | -0.0924 |
| AGTCCGAC | -0.0295 |
| AGAACGGA | 0.0362 |
| AGCGTTAC | -0.0165 |
| GGAAATAC | 0.168 |
| ACGCAACG | 0.0914 |
| CCCCAGAC | -0.295 |
| CACCGTAA | 0.101 |
| ATATAGAC | 0.108 |
| ATTAGAGG | 0.071 |
| CCCAGGTC | -0.113 |
| ATTCTTAC | 0.0969 |
| CCTGCGCC | -0.146 |
| ACTCAAAA | 0.128 |
| CACCTCGA | 0.122 |
| AGATGGAT | -0.108 |
| AGTCGTTC | 0.212 |
| CATCTCTC | 0.0245 |
| AAAACTCG | 0.118 |

A different layout for part of the listing above.
Sequence	PBM E-score
GACAATAC	0.202
CTGCAATC	-0.117
ATGGAGAA	-0.0924
AGTCCGAC	-0.0295
CCCAGGTC	-0.113

Looked up one by one from the entries so far, 2 records:

| Sequence | PBM E-score |
| --- | --- |
| AAACACGA | 0.0784 |
| CACACGAG | 0.107 |

(continued)

| Sequence | PBM E-score |
| --- | --- |
| TCACTGAA | 0.145 |
| AACATTGG | -0.301 |
| ATAGCTAC | 0.0141 |
| ACAATAAA | 0.163 |
| CCCGTTAA | -0.0331 |
| GCTCGAGA | -0.143 |
| ACGACGCT | 0.129 |
| CGACGTCC | 0.166 |
| AGGTGTTA | 0.0175 |
| AGACATCA | 0.142 |
| CAGGGTTA | -0.0175 |
| ACTGTCAC | 0.283 |
| GTTGTACA | 0.123 |
| GGCCATGA | -0.13 |
| GCTTATGA | -0.00103 |
| GCCGTTGA | 0.173 |
| GAGAACGA | 0.153 |
| CGGGGTCC | -0.0747 |
| AGATCTCA | 0.121 |
| GCTCGATA | 0.0476 |
| CATCGACG | 0.205 |
| AGGCATTA | 0.0291 |
| GGCTGTAA | 0.0297 |
| GTAGTGAC | 0.35 |
| CGCATCCA | 0.00065 |

| Sequence | PBM E-score |
| --- | --- |
| AAGGGTCG | 0.237 |
| AAGTTGTA | 0.162 |
| CCACATCG | 0.0703 |
| CGGGGATA | -0.112 |
| TCTCTGCA | 0.0379 |
| TCTGAAGA | -0.139 |
| ACGCCACC | -0.202 |
| ATAATTTG | 0.245 |
| AAACAACA | 0.0105 |
| CGATTATC | 0.241 |
| TCGTAAAA | 0.263 |
| CCTACGAC | 0.288 |
| CGCTGAGC | 0.0156 |
| CCAACCAA | -0.0984 |
| ACACGGCC | -0.0937 |
| ACTAGCCG | 0.0194 |
| CCTCTGCA | -0.0356 |
| CAGCCCTC | -0.203 |
| AGGCGGTG | -0.168 |
| CTATGGCA | -0.239 |
| TCATGCCA | -0.0271 |
| CCGTTGAG | 0.0935 |
| ATGGCACA | -0.196 |
| CTCTCCAA | -0.172 |
| TCTTTTAA | 0.169 |

| Sequence | PBM E-score |
| --- | --- |
| ACTAACTA | 0.061 |
| CCGGAGGA | -0.147 |
| ATGGGCTA | 0.161 |
| AAGTCTCG | 0.115 |
| CAAAAGTA | 0.118 |
| CCGCGGGA | -0.0132 |
| ACCGTAAG | 0.226 |
| GACCGAAA | 0.0999 |
| GGTTTTTA | -0.0615 |
| AGTTGGGC | -0.0705 |
| AGTCAATG | -0.163 |
| GATCGGGA | -0.164 |
| CTAAATAG | 0.0435 |
| CGTAGTAC | 0.183 |
| CCTGTGTC | -0.275 |
| AGGGGAAG | -0.0574 |
| CTGCATCA | 0.0347 |
| GCCTCCGA | -0.112 |
| ATCAGCGC | 0.0308 |
| AGACACTG | -0.0632 |
| CCGCTCAA | -0.119 |
| ATATACAC | -0.0184 |

From the supplement of paper PMC3334620
